Results are given in words; binding and its absence hold for the method and conditions named. In cells and extracts the contact can be indirect. Here binding means that the protein was enriched with, or labelled near, the bait; the list need not be complete.
Target: CCNB1-mCherry (cyclin B1 tagged at the endogenous locus) (human (endogenous in HeLa)) (UniProt P14635)
Experiment: affinity purification with mass spectrometry; CCNB1-mCherry or CCNB1-GFP precipitated with sheep anti-mCherry or anti-GFP antibodies and protein G-sepharose (2 h, 4°C) from lysates of HeLa cells arrested with 0.3 µM nocodazole for 16 h; parental HeLa as control; 20 mM Tris-HCl pH 7.4, 150 mM NaCl, 1% Igepal CA-630, 0.1% sodium deoxycholate; eluted with glycine pH 2.6

Chains of the proteins cited; added tags and fusions are not shown.
UniProt P14635: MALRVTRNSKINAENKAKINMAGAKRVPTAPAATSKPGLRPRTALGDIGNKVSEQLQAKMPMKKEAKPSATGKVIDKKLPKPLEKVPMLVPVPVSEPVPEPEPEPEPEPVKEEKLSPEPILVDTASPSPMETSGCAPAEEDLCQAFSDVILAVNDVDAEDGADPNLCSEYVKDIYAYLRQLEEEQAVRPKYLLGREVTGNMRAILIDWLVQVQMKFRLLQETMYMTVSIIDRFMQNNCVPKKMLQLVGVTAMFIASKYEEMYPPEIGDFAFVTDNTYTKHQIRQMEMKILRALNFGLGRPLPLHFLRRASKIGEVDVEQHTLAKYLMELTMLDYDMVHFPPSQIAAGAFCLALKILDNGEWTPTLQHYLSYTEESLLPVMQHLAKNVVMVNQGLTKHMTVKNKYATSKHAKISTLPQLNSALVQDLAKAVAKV
UniProt P33552: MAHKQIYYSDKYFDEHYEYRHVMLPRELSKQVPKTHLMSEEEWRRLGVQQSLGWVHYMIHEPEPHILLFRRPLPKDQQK
UniProt Q14980: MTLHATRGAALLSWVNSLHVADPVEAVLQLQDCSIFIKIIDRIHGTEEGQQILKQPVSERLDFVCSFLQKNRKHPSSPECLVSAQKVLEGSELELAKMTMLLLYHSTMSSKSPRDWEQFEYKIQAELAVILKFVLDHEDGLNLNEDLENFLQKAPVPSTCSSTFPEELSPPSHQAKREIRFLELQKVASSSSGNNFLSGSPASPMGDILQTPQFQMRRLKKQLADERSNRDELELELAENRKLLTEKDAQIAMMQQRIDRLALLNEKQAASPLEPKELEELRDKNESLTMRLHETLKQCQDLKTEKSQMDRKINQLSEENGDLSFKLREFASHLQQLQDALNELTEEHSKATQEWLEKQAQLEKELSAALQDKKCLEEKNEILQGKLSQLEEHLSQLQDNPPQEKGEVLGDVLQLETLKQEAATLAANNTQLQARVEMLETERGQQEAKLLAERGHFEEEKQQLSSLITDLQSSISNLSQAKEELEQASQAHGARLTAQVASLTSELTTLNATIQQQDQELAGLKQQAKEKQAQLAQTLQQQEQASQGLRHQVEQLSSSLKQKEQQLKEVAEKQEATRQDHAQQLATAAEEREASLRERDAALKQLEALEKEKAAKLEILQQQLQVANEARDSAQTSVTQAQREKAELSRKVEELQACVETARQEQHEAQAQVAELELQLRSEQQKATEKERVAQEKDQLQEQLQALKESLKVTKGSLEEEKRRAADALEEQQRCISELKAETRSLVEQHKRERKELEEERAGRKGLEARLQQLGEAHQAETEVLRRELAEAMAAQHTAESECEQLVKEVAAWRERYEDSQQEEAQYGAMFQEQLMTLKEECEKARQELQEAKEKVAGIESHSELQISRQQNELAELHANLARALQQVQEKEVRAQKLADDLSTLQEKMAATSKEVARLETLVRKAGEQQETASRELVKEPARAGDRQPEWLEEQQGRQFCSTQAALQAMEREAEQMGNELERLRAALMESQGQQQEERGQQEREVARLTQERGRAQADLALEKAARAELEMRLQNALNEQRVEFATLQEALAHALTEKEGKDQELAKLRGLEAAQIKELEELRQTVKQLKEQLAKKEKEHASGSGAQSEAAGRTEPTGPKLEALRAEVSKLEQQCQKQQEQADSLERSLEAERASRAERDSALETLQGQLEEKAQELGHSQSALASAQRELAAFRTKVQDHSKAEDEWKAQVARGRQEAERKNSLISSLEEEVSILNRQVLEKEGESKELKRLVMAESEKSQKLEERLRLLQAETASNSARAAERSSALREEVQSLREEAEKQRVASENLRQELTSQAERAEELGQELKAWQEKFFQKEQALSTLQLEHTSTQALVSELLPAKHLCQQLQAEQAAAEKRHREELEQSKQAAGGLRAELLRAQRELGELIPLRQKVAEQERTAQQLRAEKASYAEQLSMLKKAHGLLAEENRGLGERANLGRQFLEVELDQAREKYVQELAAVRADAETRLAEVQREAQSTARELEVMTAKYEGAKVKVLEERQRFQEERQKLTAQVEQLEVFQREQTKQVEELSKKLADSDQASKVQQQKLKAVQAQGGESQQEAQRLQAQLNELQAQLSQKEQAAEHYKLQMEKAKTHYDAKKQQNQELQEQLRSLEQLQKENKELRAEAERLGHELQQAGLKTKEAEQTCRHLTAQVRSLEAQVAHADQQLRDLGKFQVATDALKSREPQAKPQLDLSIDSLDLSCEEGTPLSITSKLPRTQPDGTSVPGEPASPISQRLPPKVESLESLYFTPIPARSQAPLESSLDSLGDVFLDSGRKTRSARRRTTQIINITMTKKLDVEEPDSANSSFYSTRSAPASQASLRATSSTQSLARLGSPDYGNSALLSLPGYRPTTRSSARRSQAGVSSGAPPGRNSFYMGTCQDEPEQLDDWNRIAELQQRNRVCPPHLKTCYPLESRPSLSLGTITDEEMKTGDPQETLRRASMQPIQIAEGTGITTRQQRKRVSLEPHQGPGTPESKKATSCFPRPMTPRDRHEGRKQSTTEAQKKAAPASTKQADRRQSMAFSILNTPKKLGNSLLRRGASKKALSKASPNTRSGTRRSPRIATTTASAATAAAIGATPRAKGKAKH

binding	Substance
binds	CKS2 (from UniProt P33552 1-79)
binds	spindle protein NuMA (from UniProt Q14980 1-2115)

Source: publication PMC6446853
